Source: PMC2980477

By UniProt entry, the sequences of proteins in these tests, tags left out. Where a name states a change or a piece, a line headed by the entry shows the natural chain unless it says otherwise.
UniProt P43403: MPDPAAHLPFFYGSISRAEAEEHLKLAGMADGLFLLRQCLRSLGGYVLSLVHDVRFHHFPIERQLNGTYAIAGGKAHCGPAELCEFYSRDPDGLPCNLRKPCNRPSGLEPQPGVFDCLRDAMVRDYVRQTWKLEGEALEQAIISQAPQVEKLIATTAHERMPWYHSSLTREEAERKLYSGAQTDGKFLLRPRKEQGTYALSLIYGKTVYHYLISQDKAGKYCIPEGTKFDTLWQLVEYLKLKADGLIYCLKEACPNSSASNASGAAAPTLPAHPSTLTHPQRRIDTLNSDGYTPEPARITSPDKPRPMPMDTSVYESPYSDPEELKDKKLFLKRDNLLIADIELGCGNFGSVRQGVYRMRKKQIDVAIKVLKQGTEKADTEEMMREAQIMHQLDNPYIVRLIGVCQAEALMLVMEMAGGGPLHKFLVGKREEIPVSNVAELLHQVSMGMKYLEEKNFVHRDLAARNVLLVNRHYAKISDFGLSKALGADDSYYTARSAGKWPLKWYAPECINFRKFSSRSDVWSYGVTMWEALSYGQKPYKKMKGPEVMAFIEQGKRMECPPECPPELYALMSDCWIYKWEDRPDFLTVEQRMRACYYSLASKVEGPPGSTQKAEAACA
UniProt P06239: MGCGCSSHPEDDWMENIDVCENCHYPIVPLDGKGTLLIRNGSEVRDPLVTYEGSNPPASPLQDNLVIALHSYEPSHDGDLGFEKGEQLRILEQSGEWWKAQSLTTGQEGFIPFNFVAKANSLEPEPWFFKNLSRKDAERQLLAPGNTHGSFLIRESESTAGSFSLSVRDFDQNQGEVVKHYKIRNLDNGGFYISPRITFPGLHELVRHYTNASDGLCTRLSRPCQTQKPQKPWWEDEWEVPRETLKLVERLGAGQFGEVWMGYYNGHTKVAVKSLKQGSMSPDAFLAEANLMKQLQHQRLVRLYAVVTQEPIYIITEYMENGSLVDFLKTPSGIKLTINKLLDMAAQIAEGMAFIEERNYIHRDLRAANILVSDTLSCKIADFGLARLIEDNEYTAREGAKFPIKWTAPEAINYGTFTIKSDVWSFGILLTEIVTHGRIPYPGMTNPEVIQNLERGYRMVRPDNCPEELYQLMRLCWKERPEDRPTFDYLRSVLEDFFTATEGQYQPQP

T1: HA-RhoH (UniProt Q15669)
T1 sequence: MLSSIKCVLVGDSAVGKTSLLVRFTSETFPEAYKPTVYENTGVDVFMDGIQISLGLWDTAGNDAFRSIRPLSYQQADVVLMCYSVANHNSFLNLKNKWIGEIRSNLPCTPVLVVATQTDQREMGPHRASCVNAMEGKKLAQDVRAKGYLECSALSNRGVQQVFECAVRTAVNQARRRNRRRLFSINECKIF


Tests used:
[1] = target: T1, HA-RhoH; experiment: co-IP; total lysates of HEK293 cells co-transfected with HA-RhoH, kinase-dead Lck (KD-Lck) and ZAP-70; IP with anti-ZAP-70 or anti-HA; immunoblot
[2] = target: kinase-dead ZAP-70 (KA-ZAP-70) (UniProt P43403); experiment: co-IP; total lysates of HEK293 cells transfected with combinations of HA-RhoH, CA-Lck and ZAP-70 or KA-ZAP-70; IP with anti-HA or anti-ZAP-70; immunoblot

binding [1]	binding [2]	Molecule
no binding		kinase-dead Lck (KD-Lck) (from UniProt P06239)
	no binding	HA-RhoH (protein, UniProt Q15669 1-191) MLSSIKCVLVGDSAVGKTSLLVRFTSETFPEAYKPTVYENTGVDVFMDGIQISLGLWDTAGNDAFRSIRPLSYQQADVVLMCYSVANHNSFLNLKNKWIGEIRSNLPCTPVLVVATQTDQREMGPHRASCVNAMEGKKLAQDVRAKGYLECSALSNRGVQQVFECAVRTAVNQARRRNRRRLFSINECKIF

Results are given in words; binding and its absence hold for the method and conditions named. Binding seen in cells or lysates may run through a third protein. Where a sequence is shown, tags or fusion partners need not be part of it.
